# Assay results reported in PubChem BioAssay AID493014 (National Center for Advancing Translational Sciences (NCATS), 2011).
# Screen size: about 340,000 compounds; about 170 (0.05%) were called active. Inconclusive results, whose numbers are uncertain, are shown with a selection of clear calls. The call rests on the fitted dose curve; in most records, active means well fitted inhibition curve with a large enough effect in the signal ratio, with a control signal flat (not every such curve was filed as active); inconclusive means small, poorly fitted or top-dose-only effect, or effect the other way, or a change in a side signal; inactive means flat fitted curve, though single readings scatter; the % refers to the signal ratio. Potencies beside an inconclusive call are fits to weak or partial responses and may not hold up.
# Assay: qHTS Assay to Find Inhibitors of Chronic Active B-Cell Receptor Signaling;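 on activity change, negative = inhibition: plate controls were basal doxycycline-induced cells for no effect and cells given 10 µM MG132 for full effect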
# Details: ABC-DLBCL IkBa-CBG/CBR reporter, luminescence ratio (green luciferase fused to IkBa over red control in TMD8 lymphoma cells), 4 h; activity change, negative = inhibition: at 46.1 µM (top of the series)
# Procedure, shortened: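 Compounds up to 46 uM were incubated four hours with TMD8 cells whose green CBG68 luciferase is fused to IkappaBalpha; red CBR luminescence normalised the signal, and concentration-effect curves were fitted to fusion, red and ratio data.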
# Potency means the concentration at half of the fitted maximal effect.
SMILES,"activity change, negative = inhibition",Potency
Cc1ccc(NC(=O)C2C(c3ccccc3)C2(Cl)Cl)c(C)c1 (stereo not given),inconclusive: -1.18%,
Cc1c(NC(=O)c2ccc(C(=O)Nc3c(C)n(C)n(-c4ccccc4)c3=O)cc2)c(=O)n(-c2ccccc2)n1C,inactive,
CCS(=O)(=O)N1Cc2ccccc2CC1C(=O)Nc1ccc(F)c(F)c1F (stereo not given),inconclusive: -8.5%,
Cc1cccc(OCc2nnc(SCc3nc4ccccc4c(=O)[nH]3)o2)c1,inconclusive: 5.96%,
O/N=C/c1ccccc1OCc1ccc(Cl)cc1,inconclusive: -17.4%,
Cc1ccc(C(=O)/C=C/c2ccccc2[N+](=O)[O-])cc1,inconclusive: -2.56%,
O=C(CC1N=C2c3ccccc3N=C(SCc3cccc(Cl)c3)N2C1=O)NCc1ccc2c(c1)OCO2 (stereo not given),inconclusive: -1.25%,
O=C(c1cc2nc(-c3ccco3)cc(C(F)(F)F)n2n1)N1CCN(c2ccccc2)CC1,inconclusive: 17.2%,
Cc1ccc(OCCn2cc(/C=C3\C(=O)NN(c4ccccc4)C3=O)c3ccccc32)cc1,inactive,
COc1cc(Nc2nc(SCC(=O)c3ccc(Br)cc3)nc3ccccc23)cc(OC)c1,inconclusive: -0.325%,
CN(CCOc1ccc(F)cc1)Cc1ccccc1,inconclusive: 12.9%,
CCC(C)NCCOc1ccc(C)cc1[N+](=O)[O-] (stereo not given),inconclusive: -9.02%,
CCOC(=O)c1sc(=S)n(-c2ccc(OC)cc2)c1C,inconclusive: 4.3%,
O=C(NN=Cc1cccc([N+](=O)[O-])c1)c1cc(-c2cccnc2)nc2ccccc12,inconclusive: 0.669%,
Cc1ccc(C)c(OCCNc2ccc([N+](=O)[O-])cn2)c1,inconclusive: 0.457%,
CCN(Cc1ccccc1)S(=O)(=O)c1ccc(C(=O)N(CCCN(C)C)c2nc3c(C)c(C)ccc3s2)cc1,inactive,
COc1ccc(CCC(=O)Nc2ccc(-c3noc(-c4ccc(OC)c(OC)c4)n3)cc2)cc1,inconclusive: 12.6%,
CCOC(=O)c1ccc(N2C(=O)C=CC2=O)cc1,,"inconclusive: 20.6 µM [falling, single point]"
O=C(Nc1ccc(Cl)c(Cl)c1)N1CCSC1c1ccco1 (stereo not given),inconclusive: 2.58%,
Cc1csc(NC(=O)CCCC(=O)O)c1-c1nc2ccccc2s1,inactive,
CCOC(=O)C(NC(=O)c1ccccc1)(OCC1(CC)COC1)C(F)(F)F (stereo not given),inactive,
S=C1NC2=C(CCC/C2=C\c2ccccc2)C(c2ccccc2)N1 (stereo not given),inactive,
COc1ccc(CCc2nc(-c3ccc(-n4cccc4)cc3)no2)cc1,inactive,
N#Cc1cc2ccccc2nc1SCc1ccccn1,,"inconclusive: 35.5 µM [falling, single point]"
O=C(N/N=C/c1cn(CC(=O)N2CCOCC2)c2ccccc12)c1cccnc1,inconclusive: -18.6%,
C=CCNC(=S)Nc1ccc2nsnc2c1,inactive,
N#C/C(=C(/O)C(Cl)(Cl)Cl)c1nc2ccccc2[nH]1,inconclusive: -24%,
COc1ccc(O)c(C(=O)CC(=O)c2ccccc2C)c1,inconclusive: -25.3%,

# An excerpt of these results, as tab-separated lines:
SMILES	activity change, negative = inhibition	Potency
Cc1c(NC(=O)c2ccc(C(=O)Nc3c(C)n(C)n(-c4ccccc4)c3=O)cc2)c(=O)n(-c2ccccc2)n1C	inactive	
O/N=C/c1ccccc1OCc1ccc(Cl)cc1	inconclusive: -17.4%	
COc1cc(Nc2nc(SCC(=O)c3ccc(Br)cc3)nc3ccccc23)cc(OC)c1	inconclusive: -0.325%	
O=C(NN=Cc1cccc([N+](=O)[O-])c1)c1cc(-c2cccnc2)nc2ccccc12	inconclusive: 0.669%	

# (next part)

SMILES,"activity change, negative = inhibition",Potency
Cc1ccc2c(CN3CCN(S(=O)(=O)c4ccccc4C(F)(F)F)CC3)cc(=O)oc2c1C,inconclusive: 0.828%,
COc1ccc(S(=O)(=O)N2CCOC2CNC(=O)C(=O)NCCCn2ccnc2)cc1OC (stereo not given),inconclusive: -0.664%,
Cc1cc(-c2nnc(CCC(=O)N3CCN(Cc4cccc(F)c4)CC3)o2)c(C)o1,inconclusive: 9.99%,
O=C(CC1CCCCC1)NCc1cn2ccsc2n1,inconclusive: 10.3%,
COc1cc(CC(=O)OCC(=O)NCC(C)C)cc(OC)c1OC,inactive,
O=C(CN1C(=O)CSc2ccc(S(=O)(=O)N3CCOCC3)cc21)N1CCCCC1,inactive,
Cc1c(/C=N\NC(=O)C2COc3ccccc3O2)c2ccccc2n1C (stereo not given),inconclusive: -13%,
CCC(=O)Nc1ccc(SC#N)cc1C,inconclusive: 15.6%,
Cc1ccc(C)c(N2CCN(C(=O)C34CC5CC(C3)CC(n3nnc(C)n3)(C5)C4)CC2)c1,inactive,
CCc1ccc(OCCNC(=O)c2ccco2)cc1,inconclusive: 0.871%,
CCOC(=O)C1CCCN(C(=O)c2ccc(-c3ccc([N+](=O)[O-])cc3)o2)C1 (stereo not given),,"inconclusive: 25.9 µM [falling, single point]"
Cc1nc(N2CCN(C(=O)c3ccco3)CC2)c2c3c(sc2n1)CC(C)CC3 (stereo not given),inconclusive: 29.7%,
O=C(N/N=C1\CC2CC=CC12)c1ccccc1Cl (stereo not given),,"inconclusive: 35.5 µM [rising, single point]"
Cc1onc(C(=O)Nc2ccc(OC(F)(F)F)cc2)c1[N+](=O)[O-],inconclusive: -2.97%,
CCN(CC)c1ccc(-n2c(O)c(C=C3N=c4ccccc4=N3)sc2=S)cc1,,"inconclusive: 2.91 µM [falling, full curve, poor fit]"
O=C(/C=C/c1ccccc1)NC(=S)NNC(=O)c1cccnc1,,"inconclusive: 25.1 µM [falling, partial curve]"
CCN(CC)C(=O)CCC(=O)Nc1ccc(C(=O)OC)cc1,inconclusive: -1.95%,
Clc1ccc(SCc2cn3cccnc3n2)cc1,inconclusive: -1.41%,
Cc1ccc(/C(N)=N/OC(=O)CCC2CCCC2)cc1,inconclusive: 12.8%,
CC12CC3CC(C)(C1)CC(C(=O)NC(=S)N1CCCCC1)(C3)C2,inactive,
O=C(CCNC(=O)N1CCn2c1nc1ccccc12)NCc1ccccc1Cl,inconclusive: -1.99%,
O=C1c2ccccc2NC(c2cnc3ccccc3n2)N1O (stereo not given),,"inconclusive: 8.91 µM [falling, partial curve]"
CC(c1nc2ccccc2n1Cc1ccccc1)N1CCCCC1 (stereo not given),inconclusive: 8.26%,
COc1ccccc1NC(=O)c1ccc(Cl)c(S(=O)(=O)NCc2ccco2)c1,inconclusive: 4.23%,
COCCn1c(C)cc(C(=O)COC(=O)C2CC(=O)N(CCc3ccc(OC)c(OC)c3)C2)c1C (stereo not given),inconclusive: 0.535%,
O=c1c2ccccc2[nH]c(=S)n1CCCN1CCC(Cc2ccccc2)CC1,inconclusive: -10.9%,
O=S(=O)(NCc1ccc(F)cc1)c1ccccc1Br,inconclusive: 8.24%,
